From the supplement of paper PMC9938546
Counter-ions that a name gives are not always drawn. The list shows a part of the results. Plates or batches differ in their baseline, so values are only roughly comparable.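 HCT116-GFP is a human colorectal cancer cell line that carries a KRAS mutation, is microsatellite-unstable and always makes green fluorescent protein; the immune cells came from healthy donors. Live-cell imaging of the green signal stood in for cancer cell survival, and activated immune cells alone cut survival to about half.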

test system: HCT116-GFP; test: HCT116-GFP viability (GFP intensity) relative to untreated HCT116-GFP monoculture control, co-culture with activated PBMCs; higher = less cancer cell killing; conditions: culture: co-culture with anti-CD3/IL2 activated PBMCs 1:1; 10 µM; 72 h

Compound | HCT116-GFP viability [%]
C[C@@H]1C[C@H]2[C@@H]3C[C@H](F)C4=CC(=O)C=C[C@]4(C)[C@@]3(F)[C@@H](O)C[C@]2(C)[C@@]1(O)C(=O)CO [Flumethasone] | 103
O=C(O)c1cn(-c2ccc(F)cc2)c2cc(N3CCNCC3)c(F)cc2c1=O [Sarafloxacin] | 33.6
C[N+]1(C)CCC(OC(=O)C(O)(c2ccccc2)C2CCCC2)C1 (centres undefined) [Glycopyrrolate] | 76.7
N#Cc1ccc(C(c2ccc(C#N)cc2)n2cncn2)cc1 [Letrozole] | 34.2
Clc1ccc(CCC(Cn2ccnc2)Sc2c(Cl)cccc2Cl)cc1 (centres undefined) [Butoconazole nitrate] | 33.6
CN1CCN(C2=Nc3ccccc3Oc3ccc(Cl)cc32)CC1 [Loxapine succinate] | 70
N=C(NCCCCCCNC(=N)NC(=N)Nc1ccc(Cl)cc1)NC(=N)Nc1ccc(Cl)cc1 [Chlorhexidine] | 28.7
NCc1ccccc1CC(=O)N[C@@H]1C(=O)N2C(C(=O)O)=C(CSc3nnnn3CC(=O)O)CS[C@H]12 [Ceforanide] | 38.4
CC(=O)Oc1ccccc1C(=O)Nc1ncc([N+](=O)[O-])s1 [Nitazoxanide] | 37
CC(N/C(=N\C#N)Nc1ccncc1)C(C)(C)C (centres undefined) [Pinacidil] | 49.6
CCCCC(O)c1ccccc1 (centres undefined) [Fenipentol] | 48
CCN(CC)CCOC(=O)C1(C2CCCCC2)CCCCC1 [Dicyclomine hydrochloride] | 52.8
CN(C)CCCN1c2ccccc2Sc2ccc(C(F)(F)F)cc21 [Triflupromazine hydrochloride] | 30.4
COc1cc(C(=O)OCCCN2CCCN(CCCOC(=O)c3cc(OC)c(OC)c(OC)c3)CC2)cc(OC)c1OC [Dilazep dihydrochloride] | 65.9
O=C1c2c(O)cccc2Cc2cccc(O)c21 [Anthralin] | 30.3
CN1CCN(C(c2ccccc2)c2ccccc2)CC1 [Cyclizine hydrochloride] | 52
OCCN(CCO)c1nc(N2CCCCC2)c2nc(N(CCO)CCO)nc(N3CCCCC3)c2n1 [Dipyridamole] | 77.9
CN(c1nccc(=O)[nH]1)C1CCN(c2nc3ccccc3n2Cc2ccc(F)cc2)CC1 [Mizolastine] | 63.9
O=C(O)c1ccccc1C(=O)Nc1ccc(S(=O)(=O)Nc2nccs2)cc1 [Phthalylsulfathiazole] | 69
NC[C@@H]1O[C@@H](O[C@H]2[C@H](O)[C@@H](O[C@H]3O[C@H](CO)[C@@H](O)[C@H](N)[C@H]3O)[C@H](N)C[C@@H]2N)[C@@H](O)[C@H](O)[C@H]1O [Kanamycin A sulfate] | 60.5
CC1CC(OC(=O)c2ccccc2O)CC(C)(C)C1 (centres undefined) [Homosalate] | 32.3
COC(=O)C1=C(C#N)NC(C)=C(C(=O)OC(C)C)C1c1cccc([N+](=O)[O-])c1 (centres undefined) [Nilvadipine] | 80.6
C#C[C@]1(O)CC[C@H]2[C@@H]3CCC4=CCCC[C@@H]4[C@H]3CC[C@@]21C [Lynestrenol] | 40.5
C[C@H](CCC(=O)O)[C@H]1CC[C@H]2[C@@H]3[C@@H](O)C[C@@H]4C[C@H](O)CC[C@]4(C)[C@H]3CC[C@]12C [Urosiol] | 60.8
O=C(CCCN1CCN(c2ccccn2)CC1)c1ccc(F)cc1 [Azaperone] | 9.33

Compound | HCT116-GFP viability [%]
Nc1c2ccccc2nc2ccccc12 [Aminacrine] | 9.09
CN1CCC(=C2c3ccccc3Sc3ccccc32)CC1 [Pimethixene maleate] | 52.8
N[C@@H](Cc1cc(I)c(Oc2ccc(O)c(I)c2)c(I)c1)C(=O)O [Liothyronine] | 72.1
CS(=O)(=O)OCCCCOS(C)(=O)=O [Busulfan] | 42.6
Cc1c(NC(=O)c2cccnc2)c(=O)n(-c2ccccc2)n1C [Nifenazone] | 43.8
CC(C)NC[C@@H](O)COc1ccc(CC(N)=O)cc1 [(R)-(+)-Atenolol] | 80.5
NS(=O)(=O)c1cc2c(cc1C(F)(F)F)NCNS2(=O)=O [Hydroflumethiazide] | 29.4
CC[C@@H]1C(=O)OC[C@@H]1Cc1cncn1C [Pilocarpine nitrate] | 34.9
CO[C@@H]1[C@@H](O[C@@H]2O[C@H](C)[C@@H](O[C@H]3C[C@@](C)(O)[C@@H](OC(=O)CC(C)C)[C@H](C)O3)[C@H](N(C)C)[C@H]2O)[C@@H](CC=O)C[C@@H](C)[C@@H](O)/C=C/C=C/C[C@@H](C)OC(=O)C[C@H]1OC(C)=O [Josamycin] | 34.6
CC(=O)CC(c1ccccc1)c1c(O)c2ccccc2oc1=O (centres undefined) [Warfarin] | 76.2
CCN(CC)CC(=O)Nc1c(C)cccc1C [Lidocaine hydrochloride] | 61.7
c1ccc2c(CC3=NCCN3)cccc2c1 [Naphazoline hydrochloride] | 35.9
CC(=O)OCC(=O)[C@@]12OC(C)(C)O[C@@H]1C[C@H]1[C@@H]3C[C@H](F)C4=CC(=O)C=C[C@]4(C)[C@@]3(F)[C@@H](O)C[C@@]12C [Fluocinonide] | 89
C=CC1=C(C(=O)O)N2C(=O)[C@@H](NC(=O)/C(=N\O)c3csc(N)n3)[C@H]2SC1 [Cefdinir] | 38.1
CC(=O)NS(=O)(=O)c1ccc(N)cc1 [Sulfacetamide sodic hydrate] | 42.1
Cc1cn([C@H]2C=C[C@@H](CO)O2)c(=O)[nH]c1=O [Stavudine] | 72.9
COc1cccc2c1C(=O)c1c(O)c3c(c(O)c1C2=O)C[C@@](O)(C(C)=O)C[C@@H]3O[C@H]1C[C@H](N)[C@H](O)[C@H](C)O1 [Daunorubicin hydrochloride] | 5.95
C/C=C(/C(=C/C)c1ccc(O)cc1)c1ccc(O)cc1 [Dienestrol] | 73.4
Cc1ncc([N+](=O)[O-])n1CC(C)O (centres undefined) [Secnidazole] | 63.9
O=C(O)c1ccccc1OP(=O)(O)O [Fosfosal] | 60
COc1ccc2cc([C@H](C)C(=O)O)ccc2c1 [Naproxen] | 40.2
Nc1cc(N2CCCCC2)nc(N)[n+]1[O-] [Minoxidil] | 34.1
CC1(C)S[C@@H]2[C@H](NC(=O)[C@H](N)c3ccccc3)C(=O)N2[C@H]1C(=O)O [Ampicillin trihydrate] | 43.4
O=c1n(CCCN2CCN(c3cccc(Cl)c3)CC2)nc2ccccn12 [Trazodone hydrochloride] | 54.3
NC(=O)c1cnccn1 [Pyrazinamide] | 46.8

Compound | HCT116-GFP viability [%]
Cc1nc2ccccn2c(=O)c1CCN1CCC(C(=O)c2ccc(F)cc2)CC1 [Pirenperone] | 36.7
CSc1nc2cc(Cl)c(Oc3cccc(Cl)c3Cl)cc2[nH]1 [Triclabendazole] | 35.4
O=C(CCNNC(=O)c1ccncc1)NCc1ccccc1 [Nialamide] | 55.9
N/C(=N\C(=O)c1nc(Cl)c(N)nc1N)NCc1ccccc1 [Benzamil hydrochloride] | 62.1
CCCN(CCC)CCc1cccc2c1CC(=O)N2 [Ropinirole hydrochloride] | 45.8
COc1cccc2c1C(=O)c1c(O)c3c(c(O)c1C2=O)C[C@@](O)(C(=O)CO)C[C@@H]3O[C@H]1C[C@H](N)[C@@H](O)[C@H](C)O1 [Epirubicin hydrochloride] | 10.6
CC(=O)O[C@H]1C(=O)[C@@]2(C)[C@H]([C@H](OC(=O)c3ccccc3)[C@]3(O)C[C@H](OC(=O)[C@H](O)[C@@H](NC(=O)c4ccccc4)c4ccccc4)C(C)=C1C3(C)C)[C@]1(OC(C)=O)CO[C@@H]1C[C@@H]2O [Paclitaxel] | 2.27
CN1CCCN=C1/C=C/c1cccc(O)c1 [Oxantel pamoate] | 45.7
CC(N)CCCC(C)(C)O (centres undefined) [Heptaminol hydrochloride] | 34.5
C[C@@H](O[C@H]1OCCN(Cc2n[nH]c(=O)[nH]2)[C@H]1c1ccc(F)cc1)c1cc(C(F)(F)F)cc(C(F)(F)F)c1 [Aprepitant] | 51.1
CC=CC1=C(C(=O)O)N2C(=O)[C@@H](NC(=O)[C@H](N)c3ccc(O)cc3)[C@H]2SC1 [Cefprozil] | 38
Cc1cc2c(s1)Nc1ccccc1N=C2N1CCN(C)CC1 [Olanzapine] | 67.8
CC(C)OC(=O)C(C)(C)Oc1ccc(C(=O)c2ccc(Cl)cc2)cc1 [Fenofibrate] | 36.8
Cc1c(O)c(=O)n(-c2ccccc2)n1C [Antipyrine, 4-hydroxy] | 33.4
Nc1ncnc2c1ncn2C1OC(COP(=O)(O)O)C(O)C1O (centres undefined) [Adenosine 5'-monophosphate monohydrate] | 41.9
CCOc1ccc2nc(S(N)(=O)=O)sc2c1 [Ethoxzolamide] | 33.2
C[C@@H]1C[C@H]2[C@@H]3CCC4=CC(=O)C=C[C@]4(C)[C@@]3(Cl)[C@@H](O)C[C@]2(C)[C@@]1(OC(=O)c1ccco1)C(=O)CCl [Mometasone furoate] | 44.1
CN1CCCN(C(c2ccccc2)c2ccc(Cl)cc2)CC1 (centres undefined) [Homochlorcyclizine dihydrochloride] | 42.4
CCCCc1ccc2[nH]c(NC(=O)OC)nc2c1 [Parbendazole] | 2.35
C/C(=C\C(=O)OCCCCCCCCC(=O)O)C[C@@H]1OC[C@H](C[C@@H]2O[C@H]2[C@@H](C)[C@H](C)O)[C@@H](O)[C@H]1O [Mupirocin] | 34
CCc1cccc(CC)c1NC(=O)CN(CC(=O)O)CC(=O)O [Etifenin] | 47.9
CN/C(=N\CCSCc1nc[nH]c1C)NC#N [Cimetidine] | 36.1
O=C(O)c1cc(/N=N/c2ccc(S(=O)(=O)Nc3ccccn3)cc2)ccc1O [Sulfasalazine] | 29.8
CNC[C@H](O)[C@@H](O)[C@H](O)[C@H](O)CO [Meglumine] | 75.9

A few values from the list:
For HCT116-GFP viability [%], `CSc1nc2cc(Cl)c(Oc3cccc(Cl)c3Cl)cc2[nH]1` [Triclabendazole] reads 35.4
For HCT116-GFP viability [%], `CNC[C@H](O)[C@@H](O)[C@H](O)[C@H](O)CO` [Meglumine] reads 75.9
For HCT116-GFP viability [%], `Cc1nc2ccccn2c(=O)c1CCN1CCC(C(=O)c2ccc(F)cc2)CC1` [Pirenperone] reads 36.7
For HCT116-GFP viability [%], `CCc1cccc(CC)c1NC(=O)CN(CC(=O)O)CC(=O)O` [Etifenin] reads 47.9

Sorted by molar mass (falling): some entries from above.
Compound | HCT116-GFP viability [%]
Cc1nc2ccccn2c(=O)c1CCN1CCC(C(=O)c2ccc(F)cc2)CC1 [Pirenperone] | 36.7
CC(C)OC(=O)C(C)(C)Oc1ccc(C(=O)c2ccc(Cl)cc2)cc1 [Fenofibrate] | 36.8
CSc1nc2cc(Cl)c(Oc3cccc(Cl)c3Cl)cc2[nH]1 [Triclabendazole] | 35.4
